## Percent effect of library compounds

Amino acid sequences for entries named in this document (tags omitted). Residues count along the entry.
UniProt Q4DA54, 1-478: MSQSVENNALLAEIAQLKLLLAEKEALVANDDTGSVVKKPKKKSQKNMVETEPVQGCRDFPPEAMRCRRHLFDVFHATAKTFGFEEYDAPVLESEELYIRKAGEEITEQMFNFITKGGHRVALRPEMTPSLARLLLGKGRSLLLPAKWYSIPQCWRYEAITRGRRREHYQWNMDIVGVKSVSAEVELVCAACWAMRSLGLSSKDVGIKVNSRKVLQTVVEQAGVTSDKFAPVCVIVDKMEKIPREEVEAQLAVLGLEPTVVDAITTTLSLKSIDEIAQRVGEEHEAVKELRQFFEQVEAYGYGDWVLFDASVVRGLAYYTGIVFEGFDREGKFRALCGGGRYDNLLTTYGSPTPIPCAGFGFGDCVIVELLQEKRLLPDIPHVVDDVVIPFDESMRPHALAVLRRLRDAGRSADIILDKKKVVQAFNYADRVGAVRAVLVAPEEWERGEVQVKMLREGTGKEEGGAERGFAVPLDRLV
UniProt I6X8D2, whole entry: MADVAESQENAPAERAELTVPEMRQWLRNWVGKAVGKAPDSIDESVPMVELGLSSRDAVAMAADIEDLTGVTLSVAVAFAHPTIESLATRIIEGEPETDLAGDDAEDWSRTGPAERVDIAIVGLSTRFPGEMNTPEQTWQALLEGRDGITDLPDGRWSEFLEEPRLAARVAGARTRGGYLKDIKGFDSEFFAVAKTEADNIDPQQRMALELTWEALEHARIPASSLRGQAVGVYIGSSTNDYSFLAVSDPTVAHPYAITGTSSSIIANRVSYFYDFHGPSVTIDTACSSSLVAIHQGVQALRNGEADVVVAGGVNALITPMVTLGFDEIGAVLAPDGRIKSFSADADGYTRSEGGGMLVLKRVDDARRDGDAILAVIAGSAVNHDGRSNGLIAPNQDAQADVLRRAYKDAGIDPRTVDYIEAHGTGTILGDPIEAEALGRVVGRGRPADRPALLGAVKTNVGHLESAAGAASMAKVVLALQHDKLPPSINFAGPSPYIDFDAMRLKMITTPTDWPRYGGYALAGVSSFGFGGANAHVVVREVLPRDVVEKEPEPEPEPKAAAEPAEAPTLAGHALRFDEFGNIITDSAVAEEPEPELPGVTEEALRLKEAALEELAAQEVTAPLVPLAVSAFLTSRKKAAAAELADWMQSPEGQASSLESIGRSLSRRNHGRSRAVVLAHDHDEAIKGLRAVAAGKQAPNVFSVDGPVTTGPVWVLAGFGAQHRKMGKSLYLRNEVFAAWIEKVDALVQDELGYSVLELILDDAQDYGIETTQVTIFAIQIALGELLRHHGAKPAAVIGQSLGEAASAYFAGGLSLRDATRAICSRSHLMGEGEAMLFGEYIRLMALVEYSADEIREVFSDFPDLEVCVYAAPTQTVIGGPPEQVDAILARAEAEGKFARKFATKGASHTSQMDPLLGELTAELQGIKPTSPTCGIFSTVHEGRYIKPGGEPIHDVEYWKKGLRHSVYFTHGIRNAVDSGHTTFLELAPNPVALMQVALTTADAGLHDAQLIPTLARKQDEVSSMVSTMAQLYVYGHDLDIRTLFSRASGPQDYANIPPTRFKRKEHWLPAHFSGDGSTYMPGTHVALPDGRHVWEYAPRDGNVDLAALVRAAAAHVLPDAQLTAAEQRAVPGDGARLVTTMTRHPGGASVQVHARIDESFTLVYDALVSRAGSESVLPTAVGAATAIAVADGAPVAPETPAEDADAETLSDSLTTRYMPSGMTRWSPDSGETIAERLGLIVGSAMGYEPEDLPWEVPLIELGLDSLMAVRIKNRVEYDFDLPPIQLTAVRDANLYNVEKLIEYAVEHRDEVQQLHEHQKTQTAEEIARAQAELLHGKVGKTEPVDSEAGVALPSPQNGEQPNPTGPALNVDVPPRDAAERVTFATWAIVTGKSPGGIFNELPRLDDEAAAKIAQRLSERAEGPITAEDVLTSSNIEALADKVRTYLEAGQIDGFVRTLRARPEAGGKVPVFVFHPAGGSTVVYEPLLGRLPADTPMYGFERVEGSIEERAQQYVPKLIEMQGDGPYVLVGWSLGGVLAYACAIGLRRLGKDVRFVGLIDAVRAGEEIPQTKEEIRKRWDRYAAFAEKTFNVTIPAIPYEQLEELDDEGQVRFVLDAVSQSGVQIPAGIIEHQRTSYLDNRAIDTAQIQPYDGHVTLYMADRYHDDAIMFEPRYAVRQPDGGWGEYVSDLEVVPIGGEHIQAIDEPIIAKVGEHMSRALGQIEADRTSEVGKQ
UniProt P9WNZ1, whole entry: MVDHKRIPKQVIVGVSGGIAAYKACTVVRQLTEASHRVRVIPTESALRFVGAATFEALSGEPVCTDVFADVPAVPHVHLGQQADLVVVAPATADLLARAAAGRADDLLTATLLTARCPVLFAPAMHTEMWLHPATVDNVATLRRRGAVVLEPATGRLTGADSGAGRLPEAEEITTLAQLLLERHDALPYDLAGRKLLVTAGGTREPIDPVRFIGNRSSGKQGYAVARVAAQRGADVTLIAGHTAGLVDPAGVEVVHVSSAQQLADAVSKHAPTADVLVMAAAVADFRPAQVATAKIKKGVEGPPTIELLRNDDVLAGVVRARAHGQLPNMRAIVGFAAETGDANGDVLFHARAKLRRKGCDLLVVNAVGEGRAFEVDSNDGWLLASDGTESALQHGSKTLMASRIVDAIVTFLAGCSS
UniProt Q8IDJ8, 1-583: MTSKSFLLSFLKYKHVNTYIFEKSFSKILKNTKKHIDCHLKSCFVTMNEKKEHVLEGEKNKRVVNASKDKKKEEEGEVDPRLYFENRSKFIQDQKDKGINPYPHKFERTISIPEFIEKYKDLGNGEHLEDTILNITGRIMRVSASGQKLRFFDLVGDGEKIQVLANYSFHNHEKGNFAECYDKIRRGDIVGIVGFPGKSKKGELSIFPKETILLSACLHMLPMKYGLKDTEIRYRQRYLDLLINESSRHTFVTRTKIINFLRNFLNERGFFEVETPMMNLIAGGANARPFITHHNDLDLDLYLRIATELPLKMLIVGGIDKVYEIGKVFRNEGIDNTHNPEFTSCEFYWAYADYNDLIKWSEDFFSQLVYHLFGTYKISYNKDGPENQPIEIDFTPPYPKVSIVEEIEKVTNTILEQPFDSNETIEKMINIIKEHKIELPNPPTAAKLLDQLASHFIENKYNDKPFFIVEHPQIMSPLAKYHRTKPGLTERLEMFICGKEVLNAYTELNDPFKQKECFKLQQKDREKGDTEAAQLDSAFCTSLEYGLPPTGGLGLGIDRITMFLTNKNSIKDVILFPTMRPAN
UniProt P9WFT3, whole entry: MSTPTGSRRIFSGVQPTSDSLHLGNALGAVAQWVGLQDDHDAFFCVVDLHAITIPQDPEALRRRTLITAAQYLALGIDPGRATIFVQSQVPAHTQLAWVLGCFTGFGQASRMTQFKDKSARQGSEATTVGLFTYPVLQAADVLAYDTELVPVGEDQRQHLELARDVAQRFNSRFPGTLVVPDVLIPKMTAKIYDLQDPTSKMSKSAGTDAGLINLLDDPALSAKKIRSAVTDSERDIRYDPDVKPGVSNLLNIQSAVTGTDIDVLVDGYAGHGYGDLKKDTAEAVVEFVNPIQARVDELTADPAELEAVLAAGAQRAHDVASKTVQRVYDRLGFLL

The values are deposited in ChEMBL (CHEMBL3988442, “University of Dundee, Small-Polar-MMV Screening Library” (2021)).

TcHisRS: 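Histidine-tRNA ligase, Trypanosoma cruzi CL Brener (UniProt Q4DA54). Enzyme assay of histidyl-tRNA synthetase; the read-out is not stated. Concentration: 30 µM. Direction is inferred from retests: higher values go with stronger inhibition. About 69,000 compounds were tested under these conditions; 0.045% (about 31) showed 50% or more at least once.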
Pks13 thioesterase: 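Polyketide synthase Pks13, Mycobacterium tuberculosis (UniProt I6X8D2). Enzyme assay of the thioesterase domain of polyketide synthase 13; the read-out is not stated. Tested at 30 µM. Higher reads as stronger inhibition (inferred from which compounds were picked for retests). Size under these conditions: about 67,000 compounds, about 300 of them at 50% or above in at least one test.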
CoaBC: 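Enzyme assay of CoaBC with a phosphate dye (Biomol Green) read at 650 nm. Target: Coenzyme A biosynthesis protein CoaBC, Mycobacterium tuberculosis (UniProt P9WNZ1). Concentration: 30 µM. Higher reads as stronger inhibition, judged from the few compounds that gave an IC50. Most strong results did not repeat in a second test. About 67,000 compounds were tested under these conditions; 0.06% (about 40) showed 50% or more at least once.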
Leishmania in macrophages: 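Cell assay of Leishmania donovani living inside macrophages; the read-out is not stated. Tested at 30 µM. The record gives no direction; compounds that gave an IC50 in retests scored well above the rest, so higher reads as stronger inhibition. About 69,000 compounds were tested under these conditions; 1.5% (about 1,000) showed 50% or more at least once.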
PfKRS1: 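Enzyme assay of the cytosolic lysyl-tRNA synthetase in 384-well plates, read by luminescence. Target: Lysine-tRNA ligase, Plasmodium falciparum 3D7 (UniProt Q8IDJ8). Compounds at 30 µM. Higher reads as stronger inhibition, judged from the few compounds that gave an IC50. Size under these conditions: about 69,000 compounds, about 49 of them at 50% or above in at least one test.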
MtTrpRS: 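Tryptophan-tRNA ligase, Mycobacterium tuberculosis (UniProt P9WFT3). Enzyme assay of tryptophanyl-tRNA synthetase; the read-out is not stated. Tested at 10 µM. Direction is not recorded; retested compounds ran higher, which suggests that high means inhibition. About 65,000 compounds were tested under these conditions; 0.098% (about 64) showed 50% or more at least once.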

Results are given as percent effect.
The record does not define 0% and 100%; most values in the screen are far below 50% and negative numbers occur (in some assays of this library far below -100).
Compounds were drawn at random from those tested, without regard to their results.
Two or more numbers in one place are separate tests of the same structure; such repeats can differ widely.
A dash means the value is not listed here; it may have been measured.

Compound,TcHisRS,Pks13 thioesterase,CoaBC,Leishmania in macrophages,PfKRS1,MtTrpRS
O=C(O)C(F)(F)F.O=C(O)C(F)(F)F.[H][C@@]12CCN(C(=O)Cc3ccsc3)[C@@]1([H])CC(=O)N2Cc1cccnc1,-,-,-,10.61,-,-
Cc1cc(C2CCCN(C(=O)COc3cc(C)on3)C2)n[nH]1 (stereo not drawn),2.26,19.7,2.089,-12.41,0.2482,-4.112
[H][C@]1([C@@]2(C)CC[C@H](O)C(C)(C)O2)CC2(CCN(c3ncccn3)CC2)CO1,-,-,-,-38.45,-,-
Cc1nnc(CN2CCN(C)C3(CCC(=O)N(CCO)CC3)C2)s1 (stereo not drawn),3.415,-11.1,-5.395,20.91,2.343,0.3943
CC(C(=O)NCCOc1ccccc1)n1cncn1 (stereo not drawn),5.714,-4.65,2.887,1.585,1.066,-4.011
Cc1ccc(C#N)cc1NC(=O)NC1CCCN(c2ncccn2)C1 (stereo not drawn),5.703,2.109,1.318,0.1781,10.28,-1.541
Cn1nnc2c1CCN(Cc1ccncc1)C2COCc1ccccc1 (stereo not drawn),6.557,-23.68,11.98,-,3.237,0.2212
c1cnc(NC[C@@H]2CCC[C@@H]3CN(Cc4csnn4)C[C@@H]32)nc1,5.435,-27.78,-7.009,-,6.936,-3.483
CCc1nc(CCNC(=O)Nc2cc(C(N)=O)ccc2OC)cs1,6.667,-10.2,9.091,10.59,-0.9378,8.907
CCCc1nnc(N2CCN(Cc3ccccc3OC)CC2)o1,10.1,-11.3,4.714,-5.759,-1.291,1.806
Cn1cc(C(=O)N2CCCC(Cc3cccc4ncccc34)C2)cn1 (stereo not drawn),2.198,-5.225,2.184,-8.234 and 11.36,0.3261,-
Cc1nsc(NC(=O)N2CCCCC2CCCO)n1 (stereo not drawn),9.195,0.4809,1.6,-27.68,2.736,-1.163
O=C(Cc1ccc(-n2cnnn2)cc1)Nc1cnn(CC(F)F)c1,4.663,-9.099,-30.99,-9.667,-0.1762,3.479
Cc1nn(C)cc1Cn1c(=O)ccc2ccccc21,0,-38.09,4.342,10.88,2.533,-0.7417
c1cc(C2CCN(c3cncnc3)CC2)ccn1,2.273,-,1.233,-25.31,-0.3396,-4.354
Cc1ccccc1CS(=O)(=O)Cc1nc(C2CC2)no1,5.556,-84.77,-7.563,20.58,2.886,1.544
N#CCCN(Cc1ccco1)C(=O)C1CCCc2ccccc21 (stereo not drawn),-1.754,-18.91,0.3468,10.93,6.54,-5.671
CCO[C@@H]1CC[C@H]2[C@H]1OCCN2C(=O)C1CCOCC1,-6.952,-10.38,6.832,-,-1.529,4.128
CNC(=O)c1cn[nH]c1C1CCCN1C(=O)c1ccccn1 (stereo not drawn),8.462,-5.09,6.413,28.68,4.271,-2.378
CN(CCOCC(F)(F)F)CC1CCN(CCO)CC1,6.863,-26.49,-5.742,-21.84,-1.681,-0.6796
CCCn1nc(C(=O)NCc2nnc3n2CCC3)ccc1=O,3.061,4.377,-0.6061,-10.19,-3.532,-2.29
O=C(Nc1ccccc1)N1C[C@@H]2OCCN(C(=O)c3ccco3)[C@@H]2C1,6.557,-42.49,5.011,-,1.827,-3.909
CCc1cnc(CN2CCC(O)(c3cc(OC)cc(OC)c3)CC2)o1,3.896,24.33,-,18.22,0.9038,-4.644
CC(C)(O)CCc1ccc(C(=O)N2CCN(CC3CCCC3)CC2)cc1,6.329,-12.59,1.923,-47.94,3.73,-2.854
Cc1cnn(CC(C)NCc2csc(-c3cnn(C)c3)n2)c1 (stereo not drawn),4.887,-14.88,1.828,11.16,-3.315,-2.242
CC(C)(C)OC(=O)Cn1cccc(S(=O)(=O)N2CCCC2)c1=O,4.082,-3.717,-1.124,7.015,3.739,4.848
Cc1cc(CNCCNS(C)(=O)=O)sc1Br,4.972,-14.58,1.456,-23.29,4.305,-4.235
O=C(O)C(F)(F)F.[H][C@@]12CCN(Cc3sccc3C)C[C@]1(COC)CCO2,-,-,-,40.7,-,-
CC1CCC2(CC1)NC(=O)c1cc(Br)ccc1-n1nnnc12 (stereo not drawn),3.097,-17.34,0.4673,16.52,2.161,-5.322
Cc1cccc(CN2C(=O)CC[C@H]3[C@@H]2CCN3CC(=O)N(C)C)n1,10.84,-18.68,3.807,-,-3.088,-2.551
NC(=O)NCC1CCCCN1C(=O)c1cc(F)cc(F)c1 (stereo not drawn),8.092,3.669,4.47,0.8336,2.357,-2.861
Cc1ncccc1NC(=O)c1nc2c(n1C)CCN(C(=O)C1CC1)C2,-0.5025,-6.292,5.074,35.13,4.401,-
CCNc1cc2c(nn1)CCN(C(=O)C(C)c1c(C)noc1C)C2 (stereo not drawn),4.624,-10,2.427,21.14,1.168,2.568
CC(NCc1ccc(OCC(N)=O)cc1)c1ccc(Cl)c(Cl)c1.Cl (stereo not drawn),-,-,-,12.13,-,-
CC(C)n1cnnc1SCCN(C)c1ccccc1,1.786,-5.307,0.3774,-1.184,-3.436,-0.2721
CC(C)N(CC1CCCN(CC(N)=O)C1)C(=O)OC(C)(C)C (stereo not drawn),-0.578,-,3.719,2.422,-2.04,-4.156
CCCSc1ccccc1NC(=O)N1CCC(N2CCSCC2)CC1,11.6,-26.56,3.661,-9.059,2.974,0.6552
COCC(NC(=O)c1ccc[nH]1)c1cccc(C(F)(F)F)c1 (stereo not drawn),-3.306,-18.46,4.478,2.434,-4.95,1.354
Cc1ccc(OCC(=O)Nc2cnccc2SCCCO)cc1C,5.051,-25.33,4.538,-0.3521,2.34,-1.874
[H][C@@]12CCN(CC3CC3)C[C@]1([H])OCCN(c1cccnc1)C2=O,-,-,-,-2.484,-,-
CCc1cnc(N2CC[C@@H]3CN(C(C)=O)CCO[C@@H]3C2)nc1,6.452,-5.701,7.4,-,3.477,-1.339
CCN1CCC(c2nc3ccc(NC(C)C)cn3n2)CC1.O=C(O)C(F)(F)F,-,-,-,14.23,-,-
[H][C@]12CN(Cc3ccc(OC)cc3)C[C@@]1([H])S(=O)(=O)CC[C@@H]2C(=O)NC,-,-,-,7.266,-,-
O=C(N1CCCC1)N1CCn2c(nnc2C2CCCN2)C1 (stereo not drawn),8.876,-7.914,1.053,13.72,4.879,-5.964
Cn1ncc(C(=O)N2CCN(CCS(C)(=O)=O)CC2)c1Cl,-0.8696,-4.511,-8.083,-39.27,-0.2654,-2.073
CCOC(=O)C1(O)CCN(C(=O)Nc2cccc(F)c2)CC1,4.762,-13.91,4.573,5.932,6.2,0.4468

Repeated from the top, 5 entries:

O=C(O)C(F)(F)F.O=C(O)C(F)(F)F.[H][C@@]12CCN(C(=O)Cc3ccsc3)[C@@]1([H])CC(=O)N2Cc1cccnc1 read Leishmania in macrophages: 10.61%.
Cc1cc(C2CCCN(C(=O)COc3cc(C)on3)C2)n[nH]1 (stereo not drawn) read TcHisRS: 2.26%; Pks13 thioesterase: 19.7%; CoaBC: 2.089%; Leishmania in macrophages: -12.41%; PfKRS1: 0.2482%; MtTrpRS: -4.112%.
[H][C@]1([C@@]2(C)CC[C@H](O)C(C)(C)O2)CC2(CCN(c3ncccn3)CC2)CO1 read Leishmania in macrophages: -38.45%.
Cc1nnc(CN2CCN(C)C3(CCC(=O)N(CCO)CC3)C2)s1 (stereo not drawn) read TcHisRS: 3.415%; Pks13 thioesterase: -11.1%; CoaBC: -5.395%; Leishmania in macrophages: 20.91%; PfKRS1: 2.343%; MtTrpRS: 0.3943%.
CC(C(=O)NCCOc1ccccc1)n1cncn1 (stereo not drawn) read TcHisRS: 5.714%; Pks13 thioesterase: -4.65%; CoaBC: 2.887%; Leishmania in macrophages: 1.585%; PfKRS1: 1.066%; MtTrpRS: -4.011%.